The values that follow come from paper PMC10042735.

Results are given in words; binding and its absence hold for the method and conditions named. Binding seen in cells or lysates may run through a third protein. Here binding means that the protein was enriched with, or labelled near, the bait; the list need not be complete. Where a sequence is shown, tags or fusion partners need not be part of it.

In test [1] the target is T1, V5-TurboID-tagged KAT8 (UniProt Q9H7Z6).
T1 sequence: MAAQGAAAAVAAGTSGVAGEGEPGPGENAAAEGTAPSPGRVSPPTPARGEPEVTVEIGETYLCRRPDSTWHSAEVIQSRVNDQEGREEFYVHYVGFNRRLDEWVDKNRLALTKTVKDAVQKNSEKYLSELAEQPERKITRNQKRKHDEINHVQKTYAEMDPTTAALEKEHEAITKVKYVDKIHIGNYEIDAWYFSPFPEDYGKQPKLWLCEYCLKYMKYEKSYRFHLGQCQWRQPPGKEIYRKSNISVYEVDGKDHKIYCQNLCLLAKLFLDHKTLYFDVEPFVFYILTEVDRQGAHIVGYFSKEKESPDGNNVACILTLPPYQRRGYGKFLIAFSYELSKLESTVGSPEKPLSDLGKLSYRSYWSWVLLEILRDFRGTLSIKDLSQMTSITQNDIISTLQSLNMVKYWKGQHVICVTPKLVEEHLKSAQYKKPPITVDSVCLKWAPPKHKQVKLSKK
Kind of test: proximity labelling; V5-TurboID-KAT8 in A375 cells: doxycycline 500 ng/ml 24 h, IFNγ 100 U/ml 6 h, 50 μM biotin for 15 min; lysis in RIPA-SDS buffer, streptavidin beads, mass spectrometry.

The target in test [2] is T2, BirA* (BirA R118G mutation)-fused KAT8 (UniProt Q9H7Z6).
T2 sequence: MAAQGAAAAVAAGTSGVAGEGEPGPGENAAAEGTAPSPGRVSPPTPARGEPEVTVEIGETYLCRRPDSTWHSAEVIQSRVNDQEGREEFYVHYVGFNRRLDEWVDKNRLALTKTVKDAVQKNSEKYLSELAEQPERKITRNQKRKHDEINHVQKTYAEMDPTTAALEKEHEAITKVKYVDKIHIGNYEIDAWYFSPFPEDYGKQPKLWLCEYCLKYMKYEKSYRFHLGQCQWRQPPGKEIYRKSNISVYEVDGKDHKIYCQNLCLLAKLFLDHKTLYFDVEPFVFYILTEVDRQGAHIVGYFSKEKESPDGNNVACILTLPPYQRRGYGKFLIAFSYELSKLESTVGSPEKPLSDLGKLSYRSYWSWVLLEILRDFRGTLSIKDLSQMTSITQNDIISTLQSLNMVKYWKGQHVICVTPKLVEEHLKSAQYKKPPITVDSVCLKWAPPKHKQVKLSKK
Kind of test: proximity labelling; BirA*-fused KAT8 or IRF1 in A375 cells, with or without 100 U/mL IFN-γ, 50 μM biotin for 24 h; streptavidin beads, blot.

Test [3] deals with T1, V5-TurboID-tagged KAT8. As to the kind of experiment: proximity labelling; V5-TurboID-KAT8 A375 cells treated with 10 μM 2142-R8 or Mut-R8 and doxycycline for 24 h, IFNγ 6 h, 50 μM biotin 15 min; streptavidin beads, SDS-PAGE; KAT8 with endogenous IRF1.
Test [4] has as its target T1, V5-TurboID-tagged KAT8. As to the kind of experiment: proximity labelling; same experiment as a7, read for the peptide added to the cells (10 μM, 24 h) against KAT8 in cells; only the binder purified.

B1: endogenous IRF1 (protein, UniProt P10914 1-325)
chain: MPITRMRMRPWLEMQINSNQIPGLIWINKEEMIFQIPWKHAAKHGWDINKDACLFRSWAIHTGRYKAGEKEPDPKTWKANFRCAMNSLPDIEEVKDQSRNKGSSAVRVYRMLPPLTKNQRKERKSKSSRDAKSKAKRKSCGDSSPDTFSDGLSSSTLPDDHSSYTVPGYMQDLEVEQALTPALSPCAVSSTLPDWHIPVEVVPDSTSDLYNFQVSPMPSTSEATTDEDEEGKLPEDIMKLLEQSEWQPTNVDGKGYLLNEPGVQPTSVYGDFSCKEEPEIDSPGGDIGLSLQRVFTDLKNMDATWLDSLLTPVRLPSIQAIPCAP
Take B1: the binding entry (in the test with V5-TurboID-tagged KAT8 [1]; in test [2]; with V5-TurboID-tagged KAT8 [3]) was “binds” throughout.
Regarding IPGLIWINKEEMIFQIPWKHAARRRRRRRR (peptide, UniProt P10914 21-42) [2142–R8 peptide], the binding entry with V5-TurboID-tagged KAT8 [4] is “binds”.
